Test results: the supplement of paper PMC7024190
Counter-ions that a name gives are not always drawn. This is one part of the list. Single values are uncertain here, since repeats match poorly.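 Human embryonic kidney cells were transiently transfected with a plasmid bearing a Renilla luciferase gene under the HSV-TK promoter. This first-round screen tests roughly ten thousand compounds for ones that increase reporter output.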

System: HEK 293FT
Experiment: log relative Renilla luciferase luminescence (reporter expression vs reference, reference not stated) (log (base not stated)); higher = higher recombinant reporter expression
Conditions: 10 µM; time after transfection 48 h

| SMILES | log |
| --- | --- |
| COc1cc(-c2coc3cc(OCc4ccccc4)c(OC)c(O)c3c2=O)cc(OCc2ccccc2)c1OC [irigenin, dibenzyl ether] | -0.0356 |
| Cc1cccc(C(=O)O)c1O [hydroxytoluic acid] | 0.19 |
| CC1(C)C(=O)C=C[C@]2(C)[C@H]3CC[C@@]4(C)[C@H](c5ccoc5)OC(=O)[C@H]5O[C@]54[C@]3(C)C(=O)C[C@@H]12 [deacetoxy-7-oxogedunin] | 0.311 |
| CNCCCC1c2ccccc2C=Cc2ccccc21 [protryptyline hydrochloride] | 0.223 |
| CCOC(=O)C1=C[C@@H](OC(CC)CC)[C@H](NC(C)=O)[C@@H](N)C1 [oseltamivir phosphate] | 0.0324 |
| C[C@]12CCC(=O)C=C1CC[C@@H]1[C@@H]2[C@@H](O)C[C@@]2(C)[C@H]1CC[C@]2(O)C(=O)CO [hydrocortisone] | 0.116 |
| Oc1ncnc2[nH]ncc12 [allopurinol] | -0.0915 |
| c1ccc2c(Cc3c[nH]c4ccccc34)c[nH]c2c1 [3,3'-diindolylmethane] | 0.0168 |
| CO/N=C(\C(=O)N[C@@H]1C(=O)N2C(C(=O)OCOC(=O)C(C)(C)C)=C(/C=C\c3scnc3C)CS[C@H]12)c1csc(N)n1 [cefditorin pivoxil] | 0.106 |
| CN(N=O)C(=O)N[C@H]1C(O)O[C@H](CO)[C@@H](O)[C@@H]1O (mixture of isomers) [streptozosin] | 0.019 |
| COc1ccc(CCN(C)CCCC(C#N)(c2ccc(OC)c(OC)c2)C(C)C)cc1OC (stereo not drawn) [verapamil hydrochloride] | 0.0481 |
| CCCc1cc(=O)[nH]c(=S)[nH]1 [propylthiouracil] | 0.113 |
| CC1=C(CCC(=O)O)c2cc3[nH]c(cc4nc(cc5[nH]c(cc1n2)c(C)c5C(C)O)C(C)=C4C(C)O)c(C)c3CCC(=O)O (stereo not drawn) [haematoporphyrin] | -0.0723 |
| CN(C)CCCN1c2ccccc2Sc2ccccc21 [promazine hydrochloride] | 0.0862 |
| Cc1cc(C(C)(C)C)c(O)c(C)c1CC1=NCCN1 [oxymetazoline hydrochloride] | 0.212 |
| NC(Cc1ccc(Cl)cc1)C(=O)O (stereo not drawn) [fenclonine] | 0.0848 |
| C=CC(C1=CC(=O)C=CC1=O)c1ccccc1 (stereo not drawn) [dalbergione] | 0.0391 |
| COc1c2ccoc2c(OC)c2oc(=O)ccc12 [isopimpinellin] | 0.000119 |
| COc1ccc([C@@H]2CC(=O)c3c(O)cc(O[C@@H]4O[C@H](CO[C@@H]5O[C@@H](C)[C@H](O)[C@@H](O)[C@H]5O)[C@@H](O)[C@H](O)[C@H]4O)cc3O2)cc1O [hesperidin] | 0.175 |
| CC(C)(C(=O)O)c1ccc(C(O)CCCN2CCC(C(O)(c3ccccc3)c3ccccc3)CC2)cc1 (stereo not drawn) [fexofenadine hydrochloride] | 0.178 |
| C[C@]1(OC(=O)/C=C/c2ccccc2)C[C@@H](O)[C@]2(O)C=CO[C@@H](O[C@@H]3O[C@H](CO)[C@@H](O)[C@H](O)[C@H]3O)[C@@H]21 [harpagoside] | 0.109 |
| COc1ccc2c(c1)OC/C(=C\c1ccc(OC)c(O)c1)C2=O [sappanone a dimethyl ether] | 0.25 |
| C[N+]1(C)[C@@H]2CC[C@H]1C[C@@H](OC(=O)C(O)c1ccccc1)C2 (stereo partly drawn) [homatropine methylbromide] | 0.133 |
| COC(=O)C1=C(C)NC(C)=C(C(=O)OCCN2CCN(C(c3ccccc3)c3ccccc3)CC2)C1c1cccc([N+](=O)[O-])c1 (stereo not drawn) [manidipine hydrochloride] | -0.148 |
| COC(=O)[C@H]1[C@H]2C[C@H]3c4[nH]c5ccccc5c4CCN3C[C@@H]2CC[C@@H]1O [corynanthine] | 0.0828 |

A different layout for part of the listing above:
Cc1cccc(C(=O)O)c1O [hydroxytoluic acid]
  log: 0.19
CCOC(=O)C1=C[C@@H](OC(CC)CC)[C@H](NC(C)=O)[C@@H](N)C1 [oseltamivir phosphate]
  log: 0.0324
COc1ccc2c(c1)OC/C(=C\c1ccc(OC)c(O)c1)C2=O [sappanone a dimethyl ether]
  log: 0.25

The results go on:

| SMILES | log |
| --- | --- |
| CC(=O)Nc1ccccc1 [acetanilide] | 0.0992 |
| CSc1ccc2c(c1)C(N1CCN(C)CC1)Cc1ccccc1S2 (stereo not drawn) [metitepine maleate] | -0.491 |
| C[C@H]1COc2c(C3(N)CC3)c(F)cc3c(=O)c(C(=O)O)cn1c23 [pazufloxacin mesylate] | -0.148 |
| CC(C(=O)O)c1ccc2c(c1)Cc1cccnc1O2 (stereo not drawn) [pranoprofen] | -0.13 |
| COC(=O)Nc1nc2cc(C(=O)c3ccccc3)ccc2[nH]1 [mebendazole] | -0.149 |
| CC1(C)S[C@@H]2[C@H](NC(=O)[C@H](NC(=O)N3CCNC3=O)c3ccccc3)C(=O)N2[C@H]1C(=O)O [azlocillin sodium] | 0.119 |
| CCCCCCCCCc1ccc(OCCOCCOCCOCCOCCOCCOCCOCCOCCO)cc1 [nonoxynol-9] | -1.69 |
| CC(C)c1ccc2oc3nc(N)c(C(=O)O)cc3c(=O)c2c1 [amlexanox] | 0.0358 |
| NC(=O)c1cc[n+](CC2=C(C(=O)O)N3C(=O)[C@@H](NC(=O)[C@@H](c4ccccc4)S(=O)(=O)[O-])[C@H]3SC2)cc1 [cefsulodin sodium] | 0.0585 |
| CCCCCCc1ccc(O)cc1O.Nc1c2ccccc2nc2ccccc12 [acrisorcin] | 0.162 |
| CC1(C)CC[C@]2(C)CC[C@]3(C)C(=CC[C@@H]4[C@@]5(C)CC[C@H](O)C(C)(C)[C@@H]5CC[C@]43C)[C@@H]2C1 [beta-amyrin] | 0.0307 |
| Cc1cc2c(cc1S(N)(=O)=O)S(=O)(=O)CCC2 [meticrane] | 0.111 |
| Cc1cc(O)c(C=O)c2c1C(=O)Oc1c(C)c(O)c3c(c1O2)C(O)OC3=O (stereo not drawn) [norstictic acid] | -0.0587 |
| CN1C(C)(C)CCCC1(C)C [pempidine tartrate] | -0.0634 |
| Cc1onc(-c2c(Cl)cccc2Cl)c1C(=O)N[C@@H]1C(=O)N2[C@@H]1SC(C)(C)[C@@H]2C(=O)O [dicloxacillin sodium] | 0.00912 |
| O=c1ccc2ccc(O)cc2o1 [umbelliferone] | 0.12 |
| CN(C)/N=N/c1[nH]cnc1C(N)=O [dacarbazine] | 0.135 |
| C[N+](C)(C)CCCCCC[N+](C)(C)C [hexamethonium bromide] | -0.054 |
| CC1CC(OC(=O)C(O)c2ccccc2)CC(C)(C)C1 (stereo not drawn) [cyclandelate] | 0.1 |
| Cc1oncc1C(=O)Nc1ccc(C(F)(F)F)cc1 [leflunomide] | -0.102 |
| O=C(O)c1cccnc1Nc1cccc(C(F)(F)F)c1 [niflumic acid] | -0.0736 |
| O=C(O)c1cccc(O)c1O [pyrocatechuic acid] | -0.00241 |
| CC(CCc1ccccc1)NCC(O)c1ccc(O)c(C(N)=O)c1 (stereo not drawn) [labetalol hydrochloride] | 0.0488 |
| CCOC(=O)[C@H](CCc1ccccc1)N[C@@H](C)C(=O)N1Cc2ccccc2C[C@H]1C(=O)O [quinapril hydrochloride] | 0.0126 |
| Cc1c[nH]c2ccccc12 [skatole] | 0.0313 |

| SMILES | log |
| --- | --- |
| O=c1cc(-c2ccc(O)cc2)oc2ccc(O)cc12 [6,4'-dihydroxyflavone] | 0.102 |
| CC(=O)NS(=O)(=O)c1ccc(NC(=O)c2ccccc2C(=O)O)cc1 [phthalylsulfacetamide] | -0.212 |
| CC[C@H](C)[C@H](N)C1=N[C@H](C(=O)N[C@@H](CC(C)C)C(=O)N[C@H](CCC(=O)O)C(=O)N[C@H](C(=O)N[C@H]2CCCCNC(=O)[C@H](CC(N)=O)NC(=O)[C@@H](CC(=O)O)NC(=O)[C@H](Cc3cnc[nH]3)NC(=O)[C@@H](Cc3ccccc3)NC(=O)[C@H]([C@@H](C)CC)NC(=O)[C@@H](CCCN)NC2=O)[C@@H](C)CC)CS1 [bacitracin] | -0.0177 |
| O=C(CCc1ccc(O)cc1)c1c(O)cc(O)cc1O [phloretin] | 0.229 |
| C=CC(C)(O)CCC1C(=C)CC(OC(C)=O)C2C(C)(C)CCCC12C (stereo not drawn) [larixol acetate] | 0.197 |
| CN1CCN(CCCN2c3ccccc3Sc3ccc(C(F)(F)F)cc32)CC1 [trifluoperazine hydrochloride] | -0.114 |
| COc1ccc(OC)c(C(O)CNC(=O)CN)c1 (stereo not drawn) [midodrine hydrochloride] | -0.147 |
| CC(S)C(=O)NCC(=O)O (stereo not drawn) [tiopronin] | 0.0724 |
| COC(=O)C[C@H]1C(C)(C)C2(O)OC34CC2C(=O)[C@]1(C)C3CC[C@]1(C)C4=CC(=O)O[C@H]1c1ccoc1 (stereo partly drawn) [8beta-hydroxycarapin, 3,8-hemiacetal] | -0.218 |
| CNC[C@H](O)c1ccc(O)c(O)c1 [epinephrine bitartrate] | -0.254 |
| Cn1c(=O)c2nc(C3CCCC3)[nH]c2n(C)c1=O [8-cyclopentyltheophylline] | 0.0279 |
| O=C1c2ccc(O)c(O)c2C(=O)c2c(O)ccc(O)c21 [quinalizarin] | 0.0238 |
| COc1cc(/C=C/C(N)=O)cc(OC)c1OC [cintriamide] | -0.152 |
| CN(C(=O)C(Cl)Cl)c1ccc(OC(=O)c2ccco2)cc1 [diloxanide furoate] | -0.0105 |
| Oc1cc(O)c2c(c1)O[C@H](c1cc(O)c(O)c(O)c1)[C@H](O)C2 [epigallocatechin] | 0.0562 |
| Nc1ccn([C@H]2CC[C@@H](CO)O2)c(=O)n1 [zalcitabine] | 0.106 |
| CC(=O)c1ccc2c(c1)N(CCCN(C)C)c1ccccc1S2 [acepromazine maleate] | -0.0539 |
| CN(C)CCOC(C)(c1ccccc1)c1ccccn1 (stereo not drawn) [doxylamine succinate] | -0.0953 |
| C=CCNC(N)=S [allylthiourea] | 0.0836 |
| Oc1c(I)cc(Cl)c2cccnc12 [clioquinol] | -1.58 |
| C=CC(C1=CC(=O)C(OC)=CC1=O)c1ccc(OC)cc1 (stereo not drawn) [4,4'-dimethoxydalbergione] | 0.0664 |
| CC(C)(C#N)c1cc(Cn2cncn2)cc(C(C)(C)C#N)c1 [anastrozole] | 0.0394 |
| COc1ccc(-c2cc(=O)c3c(O)c(OC)c(O[C@@H]4O[C@H](CO[C@@H]5O[C@@H](C)[C@H](O)[C@@H](O)[C@H]5O)[C@@H](O)[C@H](O)[C@H]4O)cc3o2)cc1 [pectolinarin] | -0.0135 |
